The values below are quoted from earlier work in paper PMC9545004, “Transglutaminase 2 affinity and enzyme‐substrate intermediate stability as determining factors for T‐cell responses to gluten peptides in celiac disease” (European Journal of Immunology, 2022).

The conditions of this data set: cited from earlier work; for concentration in duodenal aspirates: five fasting volunteers; for concentration in duodenal fluid: five subjects.

`NCCCNCCCCNCCCN` [spermine]: the “concentration in duodenal aspirates” value is recorded as 4.0 µM and the “concentration in duodenal fluid” value is 6.3 µM.

Turning to `NCCCCNCCCN` [spermidine], the “concentration in duodenal aspirates” value is 3.2 µM and the “concentration in duodenal fluid” value is reported as 13.1 µM.
